Single values are uncertain, as repeats are few or missing.
Compound: [O-][N+](C(C1=C(C(O)=C2)NC(C(C=C3)=CC=C3Cl)C4C1C=CC4)=C2Cl)=O
Assay: melting temperature shift (compound 7 minus DMSO); higher = compound stabilises the protein
Settings: 10 µM
Description: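 Thermal proteome profiling (TMT mass spectrometry) in intact DAOY medulloblastoma cells or DAOY lysates treated with 10 µM compound 7 or DMSO, heated at 10 temperatures from 40.5 to 73.8 °C for 3 min. Melting curves were fitted with the Bioconductor TPP package, and the melting point difference between compound and vehicle is reported per protein (single curve per condition).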

By UniProt entry, the sequences of proteins in these tests, tags left out. Where a name states a change or a piece, a line headed by the entry shows the natural chain unless it says otherwise.
UniProt P43365, whole entry: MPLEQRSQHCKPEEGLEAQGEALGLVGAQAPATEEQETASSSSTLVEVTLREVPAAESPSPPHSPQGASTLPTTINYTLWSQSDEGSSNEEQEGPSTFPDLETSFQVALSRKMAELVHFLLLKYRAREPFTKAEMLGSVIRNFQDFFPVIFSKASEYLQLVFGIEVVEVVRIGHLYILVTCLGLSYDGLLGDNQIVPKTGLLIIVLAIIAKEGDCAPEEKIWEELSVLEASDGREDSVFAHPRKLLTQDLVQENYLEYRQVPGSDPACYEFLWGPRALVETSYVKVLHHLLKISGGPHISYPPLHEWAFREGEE
UniProt Q96JH7: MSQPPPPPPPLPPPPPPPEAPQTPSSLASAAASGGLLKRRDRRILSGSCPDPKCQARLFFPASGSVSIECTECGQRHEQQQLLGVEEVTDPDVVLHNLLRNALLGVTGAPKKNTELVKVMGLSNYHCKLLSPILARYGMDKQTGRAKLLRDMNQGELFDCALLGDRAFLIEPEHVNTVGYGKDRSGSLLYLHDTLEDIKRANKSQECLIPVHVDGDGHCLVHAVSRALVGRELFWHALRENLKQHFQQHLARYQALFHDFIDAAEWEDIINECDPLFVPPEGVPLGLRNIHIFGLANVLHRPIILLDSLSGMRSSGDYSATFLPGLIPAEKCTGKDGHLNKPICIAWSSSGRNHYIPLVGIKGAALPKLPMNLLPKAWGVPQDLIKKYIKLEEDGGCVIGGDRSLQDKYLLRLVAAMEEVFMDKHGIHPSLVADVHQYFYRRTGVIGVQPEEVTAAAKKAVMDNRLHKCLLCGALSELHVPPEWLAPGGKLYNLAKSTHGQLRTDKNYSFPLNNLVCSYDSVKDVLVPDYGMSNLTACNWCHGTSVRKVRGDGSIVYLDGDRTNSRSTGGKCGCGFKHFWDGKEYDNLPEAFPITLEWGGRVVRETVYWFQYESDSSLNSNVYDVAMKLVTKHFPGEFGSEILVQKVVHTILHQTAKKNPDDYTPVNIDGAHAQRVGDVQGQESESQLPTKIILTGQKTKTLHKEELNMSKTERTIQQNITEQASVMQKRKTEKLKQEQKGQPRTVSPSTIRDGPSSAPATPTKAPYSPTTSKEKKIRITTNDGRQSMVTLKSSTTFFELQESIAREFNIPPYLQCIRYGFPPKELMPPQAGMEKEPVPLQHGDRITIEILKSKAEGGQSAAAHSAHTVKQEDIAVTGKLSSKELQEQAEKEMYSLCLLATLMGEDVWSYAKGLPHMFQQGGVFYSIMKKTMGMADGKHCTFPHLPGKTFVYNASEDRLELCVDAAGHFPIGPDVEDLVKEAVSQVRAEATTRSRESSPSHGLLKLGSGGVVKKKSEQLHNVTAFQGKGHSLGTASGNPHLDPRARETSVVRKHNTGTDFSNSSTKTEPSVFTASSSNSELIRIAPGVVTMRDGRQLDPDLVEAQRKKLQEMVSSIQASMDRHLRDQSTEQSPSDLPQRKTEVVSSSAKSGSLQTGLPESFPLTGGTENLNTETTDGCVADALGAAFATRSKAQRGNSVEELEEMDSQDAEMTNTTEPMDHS
UniProt O95059: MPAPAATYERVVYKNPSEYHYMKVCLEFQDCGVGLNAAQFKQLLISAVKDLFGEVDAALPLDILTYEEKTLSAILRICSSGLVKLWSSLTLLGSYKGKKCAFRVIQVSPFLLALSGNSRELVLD
UniProt Q969S9: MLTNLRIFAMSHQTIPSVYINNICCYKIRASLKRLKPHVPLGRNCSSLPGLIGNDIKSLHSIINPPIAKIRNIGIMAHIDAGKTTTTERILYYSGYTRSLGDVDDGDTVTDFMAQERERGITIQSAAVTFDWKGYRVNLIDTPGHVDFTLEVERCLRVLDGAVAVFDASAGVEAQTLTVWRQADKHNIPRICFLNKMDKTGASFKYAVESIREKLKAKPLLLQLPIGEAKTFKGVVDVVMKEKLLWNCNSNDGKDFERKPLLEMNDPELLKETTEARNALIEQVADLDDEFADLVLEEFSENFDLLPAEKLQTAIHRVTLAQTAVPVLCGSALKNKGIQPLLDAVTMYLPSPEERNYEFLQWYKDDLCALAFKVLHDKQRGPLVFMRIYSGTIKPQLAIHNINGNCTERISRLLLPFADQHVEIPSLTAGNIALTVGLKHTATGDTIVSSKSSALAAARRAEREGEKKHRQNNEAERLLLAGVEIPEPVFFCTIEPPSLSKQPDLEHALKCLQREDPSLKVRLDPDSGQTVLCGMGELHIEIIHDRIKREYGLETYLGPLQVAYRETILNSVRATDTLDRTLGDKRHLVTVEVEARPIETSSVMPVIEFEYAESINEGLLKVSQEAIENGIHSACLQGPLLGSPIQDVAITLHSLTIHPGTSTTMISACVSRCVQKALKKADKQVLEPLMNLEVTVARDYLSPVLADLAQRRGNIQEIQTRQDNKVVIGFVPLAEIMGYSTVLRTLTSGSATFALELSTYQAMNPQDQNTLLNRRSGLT
UniProt P00403, whole entry: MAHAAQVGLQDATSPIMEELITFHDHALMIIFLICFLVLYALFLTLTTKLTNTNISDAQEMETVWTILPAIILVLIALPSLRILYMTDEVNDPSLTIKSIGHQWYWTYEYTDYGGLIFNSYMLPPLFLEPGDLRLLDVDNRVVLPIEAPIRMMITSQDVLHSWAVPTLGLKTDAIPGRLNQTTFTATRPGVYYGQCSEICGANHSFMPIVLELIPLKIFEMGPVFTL
UniProt P06493, whole entry, looked up: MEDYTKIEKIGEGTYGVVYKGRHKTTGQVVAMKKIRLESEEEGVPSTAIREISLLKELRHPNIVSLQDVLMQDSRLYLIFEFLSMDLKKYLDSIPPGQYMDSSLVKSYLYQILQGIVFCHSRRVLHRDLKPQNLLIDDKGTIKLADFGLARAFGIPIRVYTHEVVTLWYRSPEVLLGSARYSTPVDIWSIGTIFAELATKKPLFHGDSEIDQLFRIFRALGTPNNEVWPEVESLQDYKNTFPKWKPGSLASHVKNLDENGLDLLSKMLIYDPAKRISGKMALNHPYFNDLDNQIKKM
UniProt Q9H1H9: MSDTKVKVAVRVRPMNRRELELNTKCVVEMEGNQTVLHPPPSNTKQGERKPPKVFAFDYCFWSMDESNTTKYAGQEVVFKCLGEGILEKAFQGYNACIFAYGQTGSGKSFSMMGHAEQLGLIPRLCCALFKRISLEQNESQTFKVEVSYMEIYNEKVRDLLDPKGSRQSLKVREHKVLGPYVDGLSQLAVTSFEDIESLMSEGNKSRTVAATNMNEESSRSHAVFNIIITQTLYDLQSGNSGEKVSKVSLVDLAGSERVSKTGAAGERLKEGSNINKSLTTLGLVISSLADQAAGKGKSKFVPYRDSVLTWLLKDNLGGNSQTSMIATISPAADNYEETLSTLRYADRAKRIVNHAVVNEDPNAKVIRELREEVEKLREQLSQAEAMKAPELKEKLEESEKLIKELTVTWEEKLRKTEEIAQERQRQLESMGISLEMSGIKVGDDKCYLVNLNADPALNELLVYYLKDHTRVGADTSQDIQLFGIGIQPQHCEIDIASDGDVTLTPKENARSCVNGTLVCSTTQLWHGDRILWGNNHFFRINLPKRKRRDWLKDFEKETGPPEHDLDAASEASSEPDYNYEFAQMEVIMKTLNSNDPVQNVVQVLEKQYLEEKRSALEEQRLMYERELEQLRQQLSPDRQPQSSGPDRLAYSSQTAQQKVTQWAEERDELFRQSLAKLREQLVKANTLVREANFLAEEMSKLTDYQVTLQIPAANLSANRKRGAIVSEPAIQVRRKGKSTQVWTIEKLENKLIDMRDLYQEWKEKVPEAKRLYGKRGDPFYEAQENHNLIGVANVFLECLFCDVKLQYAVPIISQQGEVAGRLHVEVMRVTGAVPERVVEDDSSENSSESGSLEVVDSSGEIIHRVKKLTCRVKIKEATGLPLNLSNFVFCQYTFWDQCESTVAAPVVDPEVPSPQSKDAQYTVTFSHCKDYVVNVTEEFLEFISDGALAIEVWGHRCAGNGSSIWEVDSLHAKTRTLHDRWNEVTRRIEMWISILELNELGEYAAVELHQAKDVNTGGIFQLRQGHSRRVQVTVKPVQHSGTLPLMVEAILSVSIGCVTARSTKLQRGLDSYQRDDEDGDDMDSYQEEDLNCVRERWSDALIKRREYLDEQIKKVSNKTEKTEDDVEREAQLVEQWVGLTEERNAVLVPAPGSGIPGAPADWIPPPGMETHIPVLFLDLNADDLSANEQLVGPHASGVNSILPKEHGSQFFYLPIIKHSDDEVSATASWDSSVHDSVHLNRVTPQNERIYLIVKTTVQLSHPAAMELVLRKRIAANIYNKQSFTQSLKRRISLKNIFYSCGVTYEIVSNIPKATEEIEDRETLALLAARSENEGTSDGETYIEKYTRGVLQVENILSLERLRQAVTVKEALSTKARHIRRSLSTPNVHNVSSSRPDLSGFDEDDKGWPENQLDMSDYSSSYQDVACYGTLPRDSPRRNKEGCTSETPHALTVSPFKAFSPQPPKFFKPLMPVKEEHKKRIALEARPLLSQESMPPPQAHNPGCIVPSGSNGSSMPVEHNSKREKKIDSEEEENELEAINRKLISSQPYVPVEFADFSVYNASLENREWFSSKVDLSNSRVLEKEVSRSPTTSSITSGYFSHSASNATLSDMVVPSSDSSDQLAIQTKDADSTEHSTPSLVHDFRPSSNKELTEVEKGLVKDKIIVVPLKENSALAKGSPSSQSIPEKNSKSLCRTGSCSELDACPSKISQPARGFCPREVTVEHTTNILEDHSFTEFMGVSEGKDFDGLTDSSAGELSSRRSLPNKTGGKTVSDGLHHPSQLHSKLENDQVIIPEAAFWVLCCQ
UniProt Q08945, whole entry: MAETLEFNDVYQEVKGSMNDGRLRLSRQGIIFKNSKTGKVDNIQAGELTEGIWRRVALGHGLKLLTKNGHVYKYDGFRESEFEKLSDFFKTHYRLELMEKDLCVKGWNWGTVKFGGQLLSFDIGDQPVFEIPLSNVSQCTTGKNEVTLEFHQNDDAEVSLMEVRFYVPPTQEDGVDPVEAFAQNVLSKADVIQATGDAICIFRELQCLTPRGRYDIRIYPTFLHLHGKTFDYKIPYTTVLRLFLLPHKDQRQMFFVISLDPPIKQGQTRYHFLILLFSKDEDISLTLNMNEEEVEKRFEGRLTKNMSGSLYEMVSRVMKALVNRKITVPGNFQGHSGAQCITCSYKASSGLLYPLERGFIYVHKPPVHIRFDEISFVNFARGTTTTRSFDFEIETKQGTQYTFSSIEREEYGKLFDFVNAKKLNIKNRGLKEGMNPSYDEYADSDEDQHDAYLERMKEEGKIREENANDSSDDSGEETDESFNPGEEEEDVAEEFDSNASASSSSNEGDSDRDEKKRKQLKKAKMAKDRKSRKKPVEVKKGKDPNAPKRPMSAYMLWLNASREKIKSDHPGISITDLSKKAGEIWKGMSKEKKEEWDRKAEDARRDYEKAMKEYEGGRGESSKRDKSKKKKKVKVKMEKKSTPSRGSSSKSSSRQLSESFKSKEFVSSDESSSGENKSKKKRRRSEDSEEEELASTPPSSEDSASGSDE
UniProt P62745, whole entry: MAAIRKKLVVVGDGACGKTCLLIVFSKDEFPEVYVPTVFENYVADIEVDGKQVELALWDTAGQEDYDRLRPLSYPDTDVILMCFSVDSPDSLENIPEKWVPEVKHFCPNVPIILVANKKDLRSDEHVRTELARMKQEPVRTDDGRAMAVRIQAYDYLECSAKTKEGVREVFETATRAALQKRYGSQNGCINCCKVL
UniProt Q13426: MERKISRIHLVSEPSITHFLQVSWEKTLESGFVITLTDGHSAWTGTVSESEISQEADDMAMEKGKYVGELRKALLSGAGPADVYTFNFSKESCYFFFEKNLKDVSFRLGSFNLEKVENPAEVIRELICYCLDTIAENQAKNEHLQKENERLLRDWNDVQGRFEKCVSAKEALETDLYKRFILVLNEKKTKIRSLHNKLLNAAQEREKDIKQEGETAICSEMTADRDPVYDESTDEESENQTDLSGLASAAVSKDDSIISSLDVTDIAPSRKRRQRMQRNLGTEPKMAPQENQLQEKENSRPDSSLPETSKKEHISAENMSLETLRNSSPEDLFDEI
UniProt Q9NP74: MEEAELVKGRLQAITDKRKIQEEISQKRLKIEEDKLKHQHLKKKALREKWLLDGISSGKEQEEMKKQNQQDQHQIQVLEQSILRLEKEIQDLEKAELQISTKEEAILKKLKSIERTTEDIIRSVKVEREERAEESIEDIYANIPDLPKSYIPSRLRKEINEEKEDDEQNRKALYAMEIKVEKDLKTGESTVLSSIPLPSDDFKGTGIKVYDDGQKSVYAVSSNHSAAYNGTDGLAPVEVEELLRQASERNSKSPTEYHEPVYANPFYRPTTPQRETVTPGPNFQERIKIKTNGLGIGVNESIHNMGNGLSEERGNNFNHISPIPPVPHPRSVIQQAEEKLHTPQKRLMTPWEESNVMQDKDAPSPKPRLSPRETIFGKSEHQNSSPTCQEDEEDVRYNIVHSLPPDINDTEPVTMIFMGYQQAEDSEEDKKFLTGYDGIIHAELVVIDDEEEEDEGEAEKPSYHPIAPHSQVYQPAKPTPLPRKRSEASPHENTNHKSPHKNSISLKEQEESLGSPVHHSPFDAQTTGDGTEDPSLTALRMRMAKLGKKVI

[1] = system: DAOY cell lysate, treatment time: 20 min, 4 °C
[2] = system: intact DAOY cells, treatment time: 90 min, 37 °C

| Target | melting temperature shift [1] | melting temperature shift [2] |
| --- | --- | --- |
| RRM2 (UniProt P31350) | -0.331 °C | -1.32 °C |
| UniProt P43365 | -1.21 °C |  |
| VCPIP1 (UniProt Q96JH7) | 0.36 °C | 0.497 °C |
| SPTLC1 (UniProt O15269) | 0.0409 °C | 0.26 °C |
| UniProt P24821 | 1.02 °C | 0.865 °C |
| RPS21 (UniProt P63220) | 0.15 °C | 0.343 °C |
| CYP2C19 (UniProt P33261) |  | 0.513 °C |
| MAEA (UniProt Q7L5Y9) | -1.32 °C | -2.89 °C |
| UniProt O95059 | 2.05 °C | 0.299 °C |
| UniProt P19087 |  | 0.268 °C |
| CBX3 (UniProt Q13185) | -0.0764 °C | 0.42 °C |
| HEXB (UniProt P07686) | -0.288 °C | -1.31 °C |
| GOLGB1 (UniProt Q14789) | 1.14 °C | 1.24 °C |
| GFM2 (UniProt Q969S9) | 1.26 °C | -0.683 °C |
| RBM3 (UniProt P98179) | 0.593 °C |  |
| UniProt Q16864 | -0.481 °C | -0.358 °C |
| UniProt P00403 | 1.33 °C | -1.4 °C |
| UniProt Q9H7F4 | 2.44 °C |  |
| UniProt Q7Z4R8 | 1.25 °C |  |
| RTFDC1 (UniProt Q9BY42) | -0.408 °C | -0.257 °C |
| UniProt Q9H361 | -0.315 °C | 0.145 °C |
| TSPYL1 (UniProt Q9H0U9) | 1.43 °C |  |
| UniProt O60831 | 1.4 °C |  |

A different layout for some results above.
Target	melting temperature shift [1]	melting temperature shift [2]
GOLGB1 (UniProt Q14789)	1.14 °C	1.24 °C
GFM2 (UniProt Q969S9)	1.26 °C	-0.683 °C

More records:

| Target | melting temperature shift [1] | melting temperature shift [2] |
| --- | --- | --- |
| UniProt Q01196 | 2.49 °C | 0.136 °C |
| WDR75 (UniProt Q8IWA0) | 0.758 °C |  |
| HECTD3 (UniProt Q5T447) | -0.102 °C | -0.653 °C |
| GSTM3 (UniProt P21266) | -0.882 °C | 0.108 °C |
| UniProt P06493 | -0.135 °C | -0.182 °C |
| MIS18A (UniProt Q9NYP9) | 0.0474 °C | -1.13 °C |
| AXL (UniProt P30530) | 0.302 °C | -0.661 °C |
| WDR36 (UniProt Q8NI36) | 0.105 °C |  |
| ERCC6L (UniProt Q2NKX8) | -0.814 °C | -0.514 °C |
| UniProt Q12955 | -0.135 °C | -0.00651 °C |
| GTF2I (UniProt P78347) | -0.859 °C | -0.0855 °C |
| UniProt Q15019 | -1.14 °C | 0.331 °C |
| GMPR2 (UniProt Q9P2T1) | 0.331 °C |  |
| SRRT (UniProt Q9BXP5) | -0.0146 °C | -0.726 °C |
| UniProt Q8TDX5 | 0.311 °C |  |
| HDAC2 (UniProt Q92769) | 0.154 °C | -0.141 °C |
| UQCC2 (UniProt Q9BRT2) | 1.23 °C | -0.342 °C |
| ITPR1 (UniProt Q14643) |  | -0.447 °C |
| KIF13A (UniProt Q9H1H9) |  | -1.37 °C |
| USP8 (UniProt P40818) | -0.412 °C | 0.252 °C |
| FBXO7 (UniProt Q9Y3I1) | -0.525 °C | -0.607 °C |
| UniProt O75352 | 1.14 °C |  |
| UniProt Q9UBV7 | 2.12 °C |  |

Nothing new here: entries from further up.

| Target | melting temperature shift [1] | melting temperature shift [2] |
| --- | --- | --- |
| KIF13A (UniProt Q9H1H9) |  | -1.37 °C |
| USP8 (UniProt P40818) | -0.412 °C | 0.252 °C |
| FBXO7 (UniProt Q9Y3I1) | -0.525 °C | -0.607 °C |
| UniProt O75352 | 1.14 °C |  |

Remaining list, next part.

| Target | melting temperature shift [1] | melting temperature shift [2] |
| --- | --- | --- |
| UniProt Q8TAD8 | -1.44 °C | -3.09 °C |
| UniProt Q9H853 |  | -0.609 °C |
| SSRP1 (UniProt Q08945) | 0.635 °C | 0.417 °C |
| UniProt P48454 | -0.507 °C | 0.222 °C |
| MRPL49 (UniProt Q13405) | 1.45 °C | -0.898 °C |
| EXOC3 (UniProt O60645) | 0.272 °C | -0.512 °C |
| SMC3 (UniProt Q9UQE7) | 0.119 °C | -0.791 °C |
| UniProt Q14699 | 1.87 °C | -0.15 °C |
| UniProt A8MVM7 |  | -0.916 °C |
| MKRN2 (UniProt Q9H000) | -0.473 °C | 2.35 °C |
| RHOB (UniProt P62745) | 2.68 °C | -4.18 °C |
| EIF3A (UniProt Q14152) | -0.535 °C | -0.0908 °C |
| KCNAB2 (UniProt Q13303) | -0.386 °C |  |
| PRRC2A (UniProt P48634) | 0.411 °C |  |
| UniProt P12111 | 0.9 °C | 0.325 °C |
| UniProt Q9UPN3 | 3.96e-06 °C | 0.126 °C |
| XRCC4 (UniProt Q13426) | -0.386 °C | 1.22 °C |
| ARPC1A (UniProt Q92747) | -1.32 °C | 0.817 °C |
| DAXX (UniProt Q9UER7) | -0.35 °C | -0.198 °C |
| PALMD (UniProt Q9NP74) |  | -0.869 °C |
| NIPSNAP3A (UniProt Q9UFN0) | 2.62 °C |  |
| SGF29 (UniProt Q96ES7) | 0.5 °C |  |
| GCDH (UniProt Q92947) | 0.116 °C | 0.0859 °C |

| Target | melting temperature shift [1] | melting temperature shift [2] |
| --- | --- | --- |
| UniProt P20337 | 1.9 °C | -1.18 °C |
| UniProt Q86U28 | 0.198 °C | -0.516 °C |
| PARK7 (UniProt Q99497) | -1.1 °C | -2.64 °C |
| PTBP1 (UniProt P26599) | 0.947 °C | -0.656 °C |
| TMUB2 (UniProt Q71RG4) | 2.03 °C |  |
| RHEB (UniProt Q15382) | 0.0421 °C | -1.45 °C |
| UniProt Q8ND61 |  | 5.45 °C |
| HEATR5A (UniProt Q86XA9) | 0.711 °C | -0.192 °C |
| RPL7A (UniProt P62424) | 0.766 °C | -0.401 °C |
| TGS1 (UniProt Q96RS0) | -1.69 °C | -1.91 °C |
| VPS13C (UniProt Q709C8) | -0.782 °C | -0.48 °C |
| UniProt Q9BSU3 | 0.332 °C | 0.479 °C |
| TRMT5 (UniProt Q32P41) | 0.489 °C | 0.131 °C |
| SMU1 (UniProt Q2TAY7) | 0.291 °C | 0.39 °C |
| UniProt Q6K0P9 |  | -0.942 °C |
| PRRC2B (UniProt Q5JSZ5) | -0.53 °C |  |
| O15320 (UniProt Q96PC5) | 1.15 °C | -0.443 °C |
| TTC19 (UniProt Q6DKK2) | -1.08 °C | -1.83 °C |
| LAMB2 (UniProt P55268) | 0.899 °C | -0.359 °C |
| TRABD (UniProt Q9H4I3) | 1.92 °C |  |
| WDR61 (UniProt Q9GZS3) | -0.121 °C | 1.3 °C |
| UniProt P00749 | 0.164 °C | -0.114 °C |
